From patent US20250325529A1, “INHIBITORS OF FATTY ACID BINDING PROTEINS (FABPs), METHODS OF USE AND METHODS OF MAKING” (Celloram, inc., priority 2024, published 2025)
Further values from the same series stand in other lists.

How the values were obtained:
[1] = test system: Salmonella typhimurium tester strain TA98; test: Ames test (Bacterial Reverse Mutation Test), TA98; type: cell-based
Description: (§1) PD152 (compound 2) was tested for genotoxic and cytotoxic side effects by Ames test. The Ames test is a Bacterial Reverse Mutation Test of mutagenicity that utilizes Salmonella typhimurium tester strains TA98, TA100, TA1535, TA1537 and Escherichia coli tester strain WP2 uvrA (pKM101), both in the presence and absence of S9.
(§2) The compound PD152 was tested at 10 concentrations (0.032-1000 μg/plate) in the presence of, or absence of, the hepatic enzyme S9.
The aniline FABP4/5 inhibitor compound, 2-((2-((2,4-dichloro-5-isopropoxyphenyl)amino)-2-oxoethyl)thio)-2-methylpropanoic acid (compound “B104” as disclosed in WO2023043803A1) also was tested for genotoxic and cytotoxic side effects by Ames test. […]

[2] = test system: Salmonella typhimurium tester strain TA100; test: Ames test (Bacterial Reverse Mutation Test), TA100; type: cell-based
Description: as §1, §2
The aniline FABP4/5 inhibitor compound, 2-((2-((2,4-dichloro-5-isopropoxyphenyl)amino)-2-oxoethyl)thio)-2-methylpropanoic acid (compound “B104” as disclosed in WO2023043803A1) also was tested for genotoxic and cytotoxic side effects by Ames test. B104 was tested using the Salmonella typhimurium tester stains TA98, TA100, TA1535, and TA1537, both in the presence and absence of the hepatic enzyme S9, at 5 concentrations (1.5-64 μg/plate).

[3] = TA98, absence of S9, 0.0312 μg/plate
[4] = TA98, absence of S9, 0.1 μg/plate
[5] = TA98, absence of S9, 0.316 μg/plate
[6] = TA98, absence of S9, 1 μg/plate
[7] = TA98, absence of S9, 3.16 μg/plate
[8] = TA98, absence of S9, 10 μg/plate
[9] = TA98, absence of S9, 31.6 μg/plate
[10] = TA98, absence of S9, 100 μg/plate
[11] = TA98, absence of S9, 316 μg/plate
[12] = TA98, absence of S9, 1000 μg/plate
[13] = TA100, absence of S9, 0.0312 μg/plate
[14] = TA100, absence of S9, 0.1 μg/plate
[15] = TA100, absence of S9, 0.316 μg/plate
[16] = TA100, absence of S9, 1 μg/plate
[17] = TA100, absence of S9, 3.16 μg/plate
[18] = TA100, absence of S9, 10 μg/plate
[19] = TA100, absence of S9, 31.6 μg/plate
[20] = TA100, absence of S9, 100 μg/plate
[21] = TA100, absence of S9, 316 μg/plate
[22] = TA100, absence of S9, 1000 μg/plate
[23] = TA100, presence of S9, 0.0312 μg/plate
[24] = TA100, presence of S9, 0.1 μg/plate
[25] = TA100, presence of S9, 0.316 μg/plate
[26] = TA100, presence of S9, 1 μg/plate
[27] = TA100, presence of S9, 3.16 μg/plate
[28] = TA100, presence of S9, 10 μg/plate
[29] = TA100, presence of S9, 31.6 μg/plate
[30] = TA100, presence of S9, 100 μg/plate
[31] = TA100, presence of S9, 316 μg/plate
[32] = TA100, presence of S9, 1000 μg/plate

## CC(C)Oc1nc(NC(=O)CSCC(=O)O)c(Cl)cc1Cl [PD152, 2-((2-((3,5-dichloro-6-isopropoxypyridin-2-yl)amino)-2-oxoethyl)thio)acetic acid]
[1]; [3]
  Fold increase: 1
  Mean number of revertants: 5
[1]; [4]
  Fold increase: 1
  Mean number of revertants: 6
[1]; [5]
  Fold increase: 1
  Mean number of revertants: 6
[1]; [6]
  Fold increase: 1
  Mean number of revertants: 6
[1]; [7]
  Fold increase: 1
  Mean number of revertants: 6
[1]; [8]
  Fold increase: 1
  Mean number of revertants: 6
[1]; [9]
  Fold increase: 1
  Mean number of revertants: 5
[1]; [10]
  Fold increase: 1
  Mean number of revertants: 6
[1]; [11]
  Fold increase: 1
  Mean number of revertants: 6
[1]; [12]
  Fold increase: 1
  Mean number of revertants: 6
[2]; [13]
  Fold increase: 1
  Mean number of revertants: 39
[2]; [14]
  Fold increase: 1
  Mean number of revertants: 39
[2]; [15]
  Fold increase: 1
  Mean number of revertants: 40
[2]; [16]
  Fold increase: 1
  Mean number of revertants: 39
[2]; [17]
  Fold increase: 1
  Mean number of revertants: 39
[2]; [18]
  Fold increase: 1
  Mean number of revertants: 40
[2]; [19]
  Fold increase: 1
  Mean number of revertants: 40
[2]; [20]
  Fold increase: 1
  Mean number of revertants: 39
[2]; [21]
  Fold increase: 1
  Mean number of revertants: 40
[2]; [22]
  Fold increase: 1
  Mean number of revertants: 40
[2]; [23]
  Fold increase: 1
  Mean number of revertants: 40
[2]; [24]
  Fold increase: 1
  Mean number of revertants: 40
[2]; [25]
  Fold increase: 1
  Mean number of revertants: 40
[2]; [26]
  Fold increase: 1
  Mean number of revertants: 39
[2]; [27]
  Fold increase: 1
  Mean number of revertants: 40
[2]; [28]
  Fold increase: 1
  Mean number of revertants: 39
[2]; [29]
  Fold increase: 1
  Mean number of revertants: 40
[2]; [30]
  Fold increase: 1
  Mean number of revertants: 38
[2]; [31]
  Fold increase: 1
  Mean number of revertants: 40
[2]; [32]
  Fold increase: 1
  Mean number of revertants: 39
